## Library screen at single concentrations

The filed quantity is “Percent Effect” (%). The controls that fix the scale are not given in the record; negative values are as filed. The compounds are a random part of those screened.

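Whole-parasite assay of Trypanosoma brucei over 72 hours; the read-out is not stated. Concentration: 30 µM. Direction is inferred from retests: higher values go with stronger inhibition. Values scatter widely below zero; nearly all retest evidence comes from the higher of the two concentrations used. Size under these conditions: about 64,000 compounds, about 940 of them at 50% or above in at least one test.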

CC(C)c1cc(NC(=O)Cn2ccc(=O)c3ccccc32)[nH]n1 gave -47.46%.
CC(C)n1cnc(-c2nc(C(=O)N3CCN(C)CC3)c3ccccn23)c1 gave 2.831%.
NC(=O)COCCNC(=O)Nc1sc2ccccc2c1Cl gave -457.2%.
COCCNC(=O)C1CCCN(c2ccc3nncn3n2)C1 (stereo unspecified) gave -2.69%.
Cn1cc(C(=O)N2CCCN(c3cccnn3)CC2)c2ccccc21 gave -18.28%.
Cc1ccc(-c2nc3c([nH]2)CCNC3C(=O)O)c2cccnc12 (stereo unspecified) gave -0.6832%.
Cc1cc(CN(C)C(=O)c2ccc(C(F)(F)F)nc2)no1 gave -22.29%.
Cn1ncc(N2CCC(CNC3CC(C)(C)CC(C)(C)C3)C2)cc1=O (stereo unspecified) gave -24.78%.
CCc1nnsc1C(=O)N(C)Cc1ccc(C)o1 gave -0.722%.
CCC(Nc1nccc(C2CCCC2)n1)c1ncccc1C (stereo unspecified) gave -134.5%.
CC(C)Cc1noc(CN2CCC(C(=O)NCC3CCCO3)CC2)n1 (stereo unspecified) gave -7.943%.
CC(C)CN1CCC(NC(=O)NCCC(=O)NCc2ccccc2)CC1 gave -14.03%.
[H][C@@]12CS(=O)(=O)C[C@]1([H])N(C(=O)CCC(F)(F)F)CCN2Cc1[nH]cnc1C gave 50.6%.
CCOCc1cnc2n1CCN(C(=O)c1ccoc1C)C2C (stereo unspecified) gave -34.9%.
Cc1n[nH]c(C2CN(C(=O)c3ccn(C)c(=O)c3)CCO2)n1 (stereo unspecified) gave -60.14%.
CN(CCc1ccccc1)c1cnn(C)c(=O)c1Br gave -26.16%.
c1ccc(C2CN(CCc3ccncc3)CCO2)cc1 (stereo unspecified) gave -14.65%.
Cc1nc[nH]c1CNC1CC(=O)N(CCc2cccc(Cl)c2)C1 (stereo unspecified) gave -48.22%.
CCC(=O)NCC(=O)NCC1(c2c(F)cccc2F)CCCC1 gave -16.19%.
O=C(CCC1CCCO1)NS(=O)(=O)c1ccc(Cl)cc1 (stereo unspecified) gave -24.41%.
CCOC(=O)[C@H]1[C@@H](O)C(=O)N(C)C12CCN(C(=O)OCC)CC2 gave -8.017%.
[H][C@@]12CN(Cc3cccc(OC)c3)CC[C@]1([H])N(C(C)=O)C[C@H]2c1ccsc1 gave -3.85%.
O=C(Nc1ccc(N2CCOCC2)nc1)N1CCc2sccc2C1 gave 15.99%.
Cc1ncc2c(n1)CN(Cc1nnc(Cc3ccccc3)o1)CC2 gave 0.5412%.
CN(CCc1ccccn1)C(=O)c1cn2c(n1)CNCC2 gave -39.9%.
O=C(CCn1cncn1)NC1(c2cccc(Br)c2)CCC1 gave 7.986%.
CCn1nc(CC(C)C)cc1C(=O)N1CCC2(CC1)[C@H](O)C[C@@H]2O gave -1.056%.
COCCN1CCCC12CCN(c1ncccn1)CC2.O=C(O)C(F)(F)F gave -36.05%.
CCCn1nnnc1CSc1nccn1Cc1ccccn1 gave -14.05%.
Cc1nnsc1C(=O)NCc1cccnc1N1CCCC(O)C1 (stereo unspecified) gave -19.66%.
Cc1cc(N2CCN3CCCCC3C2)n2nc(C)c(C)c2n1 (stereo unspecified) gave 18.02%.
CCN1CCCC2(CCN(Cc3nnc(C4CC4)o3)C2)C1=O (stereo unspecified) gave -5.397%.
CN1C(=O)c2ccc(NC(=O)CSc3ccc4c(c3)CCC4)cc2C1=O gave -30.59%.
CCc1c(C)noc1-c1cnc(NC2CC2)nc1-c1cnc(C)cn1 gave -4.501%.
CCCn1cnnc1CNC1CSCCSC1 gave -17.99%.
CSCc1nc(C(C)(C)NC(=O)OC(C)(C)C)no1 gave -23.44%.
Cc1ccc(CN2Cc3nnn(C)c3C(COCc3ccccc3)C2)s1.O=C(O)C(F)(F)F (stereo unspecified) gave -18.47%.
CCn1c(SCC(N)=O)nnc1-c1csc2c1CCCC2 gave -40.53%.
Fc1cccc(Cl)c1CNCCOc1ccccn1 gave -1.191%.
CC(=O)CSc1nnc2n1N=CN(c1cccc(Cl)c1)C2 gave -30.63%.
CC(=O)N1N=C(c2ccco2)OC1C(=O)N(C)CCc1ccccc1 (stereo unspecified) gave -0.7394%.
CC1(c2ccccc2)CCCN(Cc2cncn2C2CC2)C1 (stereo unspecified) gave -39.24%.
O=c1c(CN2CCOCC2)coc(O)c1CN1CCOCC1 gave -17.25%.
O=C(COc1ccc(C(F)(F)F)cc1)N1CCOCC1c1ncon1 (stereo unspecified) gave -29.48%.
CCc1ncc2c(n1)CN(C(C(N)=O)c1ccccc1)CC2 (stereo unspecified) gave -51.09%.
Cc1n[nH]c(C)c1NC(=O)CN1CCCC1c1noc(C2CC2)n1 (stereo unspecified) gave -9.488%.
Cc1noc(CCCC(=O)N2CCCCC2c2nccs2)n1 (stereo unspecified) gave -66.86%.
O=C1CNc2ncnc(N3CCN(Cc4ccccc4)CC3)c2N1 gave -34.36%.
O=C(c1ccc(OCC2CC2)nc1)N1CCCC(n2cccn2)C1 (stereo unspecified) gave 0.1016%.
CC(C(=O)NCc1ccc(N2CCCCCC2)nc1)S(C)(=O)=O (stereo unspecified) gave -12.71%.
CC(C)Cn1cncc1CNC1CCCNC1 (stereo unspecified) gave -21.1%.
CCCn1nnnc1COC(=O)C1COc2ccc(Cl)cc2C1 (stereo unspecified) gave -67.68%.
COC[C@]1(O)CCN(c2cc(N3CCOCC3)ncn2)CC1(C)C gave -57.06%.
COc1ccc(C(=O)N2CCCC2c2ccco2)cc1OC (stereo unspecified) gave -56.34%.
Cc1nc(CN2CCCC(NCc3csc(C(C)(C)C)n3)C2)no1 (stereo unspecified) gave 71.04%.

The last 4 entries again:

For CCCn1nnnc1COC(=O)C1COc2ccc(Cl)cc2C1 (stereo unspecified) the result was -67.68%.
For COC[C@]1(O)CCN(c2cc(N3CCOCC3)ncn2)CC1(C)C the result was -57.06%.
For COc1ccc(C(=O)N2CCCC2c2ccco2)cc1OC (stereo unspecified) the result was -56.34%.
For Cc1nc(CN2CCCC(NCc3csc(C(C)(C)C)n3)C2)no1 (stereo unspecified) the result was 71.04%.

From ChEMBL document CHEMBL3988442, “University of Dundee, Small-Polar-MMV Screening Library” (2021).